PubChem BioAssay AID1224830 – NIAID – 2016
This is one part, drawn at random, of about 18,000 reagents. Over the whole deposit, about 2,900 (16%) were called active. 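Calls are made per well; low scores hint the gene aids the LPS response, high scores that it dampens it.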 Repeated entries: four replicate wells of each siRNA pool.

- Screen: 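Genes whose knock-down alters the TNF-alpha reporter response to LPS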 (primary screen)
- Cell system: human THP-1 monocytic leukaemia cells, TNF dual-luciferase reporter clone, PMA-differentiated to macrophage-like cells
- Reagents: siRNA pool against human genes, 50 nM
- Timing: LPS for 4 h, given about 3 days after siRNA transfection
- Treatment: bacterial LPS (TLR4 ligand), 10 ng/ml
- Measurement: 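Ratio of firefly to renilla light, scaled to the plate median and expressed as a robust z-score per replicate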
- Direction: TNF reporter robust z-score: higher = stronger TNF reporter response to LPS
- Hit rule: 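a well is active when its z-score exceeds 2.8 or falls below -1.5; control wells carry no call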

With ANGEL1, what does the deposit list?
TNF reporter robust z-score: 1.06; Call: inactive

What did the screen give for ANGEL1?
TNF reporter robust z-score: -0.07; Call: inactive

What is on record for ANGEL1?
TNF reporter robust z-score: -0.89; Call: inactive

With ANGEL1, what does the deposit list?
TNF reporter robust z-score: 0.01; Call: inactive

With COCH, what was measured?
TNF reporter robust z-score: 0.33; Call: inactive

With COCH, how do the results read?
TNF reporter robust z-score: 0.55; Call: inactive

Which result is listed for COCH?
TNF reporter robust z-score: -1.09; Call: inactive

With COCH, what was measured?
TNF reporter robust z-score: -0.05; Call: inactive

For HSD17B12, what was measured?
TNF reporter robust z-score: -0.6; Call: inactive

With HSD17B12, what does the deposit list?
TNF reporter robust z-score: 0.91; Call: inactive

What did the screen give for HSD17B12?
TNF reporter robust z-score: -0.02; Call: inactive

With HSD17B12, how do the results read?
TNF reporter robust z-score: 0.79; Call: inactive

For NKX3-2, how do the results read?
TNF reporter robust z-score: -0.9; Call: inactive

How did the screen score NKX3-2?
TNF reporter robust z-score: -1.29; Call: inactive

With NKX3-2, what was measured?
TNF reporter robust z-score: -1.2; Call: inactive

With NKX3-2, what does the deposit list?
TNF reporter robust z-score: -0.98; Call: inactive

Which result is listed for SLC8B1?
TNF reporter robust z-score: -0.94; Call: inactive

What did the screen give for SLC8B1?
TNF reporter robust z-score: -0.7; Call: inactive

With SLC8B1, what was measured?
TNF reporter robust z-score: -1.03; Call: inactive

For SLC8B1, what was measured?
TNF reporter robust z-score: -0.81; Call: inactive

What is on record for GUCA1C?
TNF reporter robust z-score: 0.61; Call: inactive

With GUCA1C, what does the deposit list?
TNF reporter robust z-score: -0.36; Call: inactive

With GUCA1C, what was measured?
TNF reporter robust z-score: -0.51; Call: inactive

With GUCA1C, what was measured?
TNF reporter robust z-score: -0.59; Call: inactive

With QSER1, what was measured?
TNF reporter robust z-score: -0.77; Call: inactive

How did the screen score QSER1?
TNF reporter robust z-score: 1.25; Call: inactive

What is on record for QSER1?
TNF reporter robust z-score: -0.67; Call: inactive

What did the screen give for QSER1?
TNF reporter robust z-score: 1.44; Call: inactive

How did the screen score MDGA1?
TNF reporter robust z-score: -0.84; Call: inactive

What is on record for MDGA1?
TNF reporter robust z-score: 0.3; Call: inactive

What did the screen give for MDGA1?
TNF reporter robust z-score: -0.01; Call: inactive

For MDGA1, what was measured?
TNF reporter robust z-score: 0.55; Call: inactive

For KLHL30, how do the results read?
TNF reporter robust z-score: 0.17; Call: inactive

For KLHL30, what was measured?
TNF reporter robust z-score: 0.45; Call: inactive

What did the screen give for KLHL30?
TNF reporter robust z-score: 2.04; Call: inactive

With KLHL30, how do the results read?
TNF reporter robust z-score: 1.94; Call: inactive

What is on record for HAO1?
TNF reporter robust z-score: -0.65; Call: inactive

How did the screen score HAO1?
TNF reporter robust z-score: 0.61; Call: inactive

What is on record for HAO1?
TNF reporter robust z-score: 0.27; Call: inactive

For HAO1, what does the deposit list?
TNF reporter robust z-score: 0.26; Call: inactive

How did the screen score INSIG2?
TNF reporter robust z-score: 2.99; Call: active

For INSIG2, what does the deposit list?
TNF reporter robust z-score: 0.59; Call: inactive

What is on record for INSIG2?
TNF reporter robust z-score: 0.98; Call: inactive

What is on record for INSIG2?
TNF reporter robust z-score: 2.13; Call: inactive

What is on record for AMD1?
TNF reporter robust z-score: 0.41; Call: inactive

How did the screen score AMD1?
TNF reporter robust z-score: 0.78; Call: inactive

With AMD1, how do the results read?
TNF reporter robust z-score: 0.03; Call: inactive

What did the screen give for AMD1?
TNF reporter robust z-score: 0.77; Call: inactive

With SPSB3, what was measured?
TNF reporter robust z-score: 3.49; Call: active

With SPSB3, what was measured?
TNF reporter robust z-score: 1.74; Call: inactive

For SPSB3, what was measured?
TNF reporter robust z-score: 3.34; Call: active

With SPSB3, how do the results read?
TNF reporter robust z-score: 4.93; Call: active

With SPIDR, what was measured?
TNF reporter robust z-score: -0.31; Call: inactive

For SPIDR, what was measured?
TNF reporter robust z-score: 0.61; Call: inactive

For SPIDR, how do the results read?
TNF reporter robust z-score: 1.01; Call: inactive

What is on record for SPIDR?
TNF reporter robust z-score: 1.58; Call: inactive

Which result is listed for ESRRA?
TNF reporter robust z-score: -1.44; Call: inactive

Which result is listed for ESRRA?
TNF reporter robust z-score: -1.29; Call: inactive

For ESRRA, how do the results read?
TNF reporter robust z-score: -1.15; Call: inactive

With ESRRA, how do the results read?
TNF reporter robust z-score: -0.11; Call: inactive

In a second layout: 8 of the entries above
Target gene | TNF reporter robust z-score | Call
MDGA1 | -0.01 | inactive
MDGA1 | 0.55 | inactive
KLHL30 | 0.17 | inactive
KLHL30 | 0.45 | inactive
KLHL30 | 2.04 | inactive
KLHL30 | 1.94 | inactive
HAO1 | -0.65 | inactive
HAO1 | 0.61 | inactive
